Results are given in words; binding and its absence hold for the method and conditions named. For some assays here: Binding can be weak; no strength is given. For some assays here: In cells and extracts the contact can be indirect. For some assays here: Where a sequence is shown, tags or fusion partners need not be part of it.
Legend:
[1] = biological target: T1, PmDAM4 (BiFC fusion) (Prunus mume) (UniProt G1UE22); assay: split reporter; split YFP (YFP^N and YFP^C fusions) co-expressed in N. benthamiana leaves by agroinfiltration; confocal microscopy 2-3 days post-infiltration, YFP excited at 514 nm; in the rows the binder is the YFP^N fusion and the target the YFP^C fusion
T1 sequence: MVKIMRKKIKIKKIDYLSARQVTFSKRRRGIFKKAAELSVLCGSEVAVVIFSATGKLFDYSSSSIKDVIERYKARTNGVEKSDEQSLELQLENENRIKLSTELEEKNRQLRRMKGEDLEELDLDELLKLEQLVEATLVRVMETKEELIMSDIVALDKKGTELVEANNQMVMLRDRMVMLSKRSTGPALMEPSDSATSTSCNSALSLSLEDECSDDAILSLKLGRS

[2] = biological target: T2, PmDAM6 (BiFC fusion) (Prunus mume) (UniProt B9A1S9); assay: as above
T2 sequence: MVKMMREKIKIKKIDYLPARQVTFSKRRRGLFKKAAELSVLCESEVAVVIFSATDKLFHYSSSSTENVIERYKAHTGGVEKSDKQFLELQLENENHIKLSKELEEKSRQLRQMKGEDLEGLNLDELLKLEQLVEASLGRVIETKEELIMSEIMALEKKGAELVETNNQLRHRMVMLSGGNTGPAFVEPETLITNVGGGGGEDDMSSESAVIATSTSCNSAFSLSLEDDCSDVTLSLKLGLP

PmDAM1 (Prunus mume) = biological target: T3, PmDAM1 (Prunus mume) (UniProt G1UE19); assay: two-hybrid; pGBKT7 baits in Y2H gold mated with pGADT7 preys in Y187; dilutions 1, 1/10, 1/100, 1/1000 on DDO and SD/-Leu/-Trp/-His/-Ade/X-α-Gal/Aba plates, 30 °C, 3-5 days; in triplicate
T3 sequence: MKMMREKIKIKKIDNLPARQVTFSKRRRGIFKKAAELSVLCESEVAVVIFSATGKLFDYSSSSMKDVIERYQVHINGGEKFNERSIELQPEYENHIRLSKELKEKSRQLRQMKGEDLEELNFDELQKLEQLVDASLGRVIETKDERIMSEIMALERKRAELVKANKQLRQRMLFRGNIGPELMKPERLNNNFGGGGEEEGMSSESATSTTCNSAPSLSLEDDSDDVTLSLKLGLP

PmCBF1 (Prunus mume) = assay: as above
[3] = biological target: PmCBF1 (BiFC fusion) (Prunus mume); assay: split reporter; split YFP (YFP^N and YFP^C fusions) co-expressed in N. benthamiana leaves by agroinfiltration; confocal microscopy 2-3 days post-infiltration, YFP excited at 514 nm; in the rows the binder is the YFP^N fusion and the target the YFP^C fusion
[4] = biological target: PmCBF4 (BiFC fusion) (Prunus mume); assay: as above

**Q.** Which binding [1] does the source give for PmCBF1 (BiFC fusion) (Prunus mume) here?
**A.** no binding

**Q.** With PmCBF4 (BiFC fusion) (Prunus mume) as the molecule, how does the binding [2] read?
**A.** no binding

**Q.** PmCBF1 (Prunus mume) was tested. Which binding (PmDAM1 (Prunus mume)) did it give?
**A.** binds

B1: PmDAM1 (protein, UniProt G1UE19 1-235)
chain: MKMMREKIKIKKIDNLPARQVTFSKRRRGIFKKAAELSVLCESEVAVVIFSATGKLFDYSSSSMKDVIERYQVHINGGEKFNERSIELQPEYENHIRLSKELKEKSRQLRQMKGEDLEELNFDELQKLEQLVDASLGRVIETKDERIMSEIMALERKRAELVKANKQLRQRMLFRGNIGPELMKPERLNNNFGGGGEEEGMSSESATSTTCNSAPSLSLEDDSDDVTLSLKLGLP
**Q.** For B1, which binding (PmCBF1 (Prunus mume)) is on record?
**A.** binds

B2: PmDAM2 (protein, UniProt G1UE20 1-240)
chain: MVKTMRKKIKIKKIDYLPARQVTFSKRRRGIFKKAEELSVLCESEVAVVIFSATGKLFDYSSSSTKNVVERYKAHTNGVEKSDEPSVELQLEIENQIRLNKELAEKSRQLRQMRGEDLEKLNIDELQKLEQLVDASLGRVIETKEELIMSEIMALERKGAELVEANNQLRQRMVMLSRGNIGPGLTEPERFINNIGDGGEEGMSSESATNATISSCSSGLSLSLEDDCSDVTLALKLGLP
**Q.** For B2, which binding (PmCBF1 (Prunus mume)) is on record?
**A.** binds weakly

B3: PmDAM6 (protein, UniProt B9A1S9 1-241)
chain: MVKMMREKIKIKKIDYLPARQVTFSKRRRGLFKKAAELSVLCESEVAVVIFSATDKLFHYSSSSTENVIERYKAHTGGVEKSDKQFLELQLENENHIKLSKELEEKSRQLRQMKGEDLEGLNLDELLKLEQLVEASLGRVIETKEELIMSEIMALEKKGAELVETNNQLRHRMVMLSGGNTGPAFVEPETLITNVGGGGGEDDMSSESAVIATSTSCNSAFSLSLEDDCSDVTLSLKLGLP
**Q.** For B3, which binding (PmCBF1 (Prunus mume)) is on record?
**A.** binds weakly

B4: PmDAM1 (BiFC fusion) (protein, UniProt G1UE19 1-235)
chain: MKMMREKIKIKKIDNLPARQVTFSKRRRGIFKKAAELSVLCESEVAVVIFSATGKLFDYSSSSMKDVIERYQVHINGGEKFNERSIELQPEYENHIRLSKELKEKSRQLRQMKGEDLEELNFDELQKLEQLVDASLGRVIETKDERIMSEIMALERKRAELVKANKQLRQRMLFRGNIGPELMKPERLNNNFGGGGEEEGMSSESATSTTCNSAPSLSLEDDSDDVTLSLKLGLP
**Q.** For B4, which binding [3] is on record?
**A.** binds

**Q.** And the binding [4]?
**A.** no binding

B5: PmDAM2 (BiFC fusion) (protein, UniProt G1UE20 1-240)
chain: MVKTMRKKIKIKKIDYLPARQVTFSKRRRGIFKKAEELSVLCESEVAVVIFSATGKLFDYSSSSTKNVVERYKAHTNGVEKSDEPSVELQLEIENQIRLNKELAEKSRQLRQMRGEDLEKLNIDELQKLEQLVDASLGRVIETKEELIMSEIMALERKGAELVEANNQLRQRMVMLSRGNIGPGLTEPERFINNIGDGGEEGMSSESATNATISSCSSGLSLSLEDDCSDVTLALKLGLP
**Q.** Which binding [3] does the source give for B5 here?
**A.** binds

**Q.** What about the binding [4] of the same molecule?
**A.** no binding

B6: PmDAM3 (protein, UniProt G1UE21 1-235)
chain: MMRKKIKIKKIDCLPARQVTFSKRRRGIFKKAAELSVLCESKVAVVIFSATGKLFDYSSSSIKDVIESYKAHKNGVKKSDEPSVELQLENENHIGLSKELEEKSHQLRQQMKAEDLEELNFDELQKLEQLVDTSLSRVIETKEELRMSEIMALERKGAELVEANNQLKQTVMLSGGNTGPTLMDPERLNDNVGGGGEEEGMSSESAISTTCNSALSLSLGDDSDDVTLSLELGLP
**Q.** B6 was tested. Which binding (PmCBF1 (Prunus mume)) did it give?
**A.** no binding

B7: PmDAM4 (protein, UniProt G1UE22 1-225)
chain: MVKIMRKKIKIKKIDYLSARQVTFSKRRRGIFKKAAELSVLCGSEVAVVIFSATGKLFDYSSSSIKDVIERYKARTNGVEKSDEQSLELQLENENRIKLSTELEEKNRQLRRMKGEDLEELDLDELLKLEQLVEATLVRVMETKEELIMSDIVALDKKGTELVEANNQMVMLRDRMVMLSKRSTGPALMEPSDSATSTSCNSALSLSLEDECSDDAILSLKLGRS
**Q.** With B7 as the molecule, how does the binding (PmCBF1 (Prunus mume)) read?
**A.** no binding

B8: PmDAM5 (protein, UniProt G1UE18 1-234)
chain: MMNKIKIKKIDYLPARQVTFSKRRRGLFKKAAELSVLCESEVAVVIFSATSKLFDYSSSSTKDVIERYNADMNGVEKSNNQEIELQLENENHIKLSKELEKTSHQLRQMKGEDLEGLNLDELLKLEQLVEASLGRVMETKEELIKSEIMELERKGAELVEANSQLRQTMVMLSGGNTGPALMDPERLNNNIEGGGEEEGMSAESAISTTCNSAVSLSLEDDSSDEVTLSLKLGR
**Q.** With B8 as the molecule, how does the binding (PmCBF1 (Prunus mume)) read?
**A.** no binding

B9: PmDAM3 (BiFC fusion) (protein, UniProt G1UE21 1-235)
chain: MMRKKIKIKKIDCLPARQVTFSKRRRGIFKKAAELSVLCESKVAVVIFSATGKLFDYSSSSIKDVIESYKAHKNGVKKSDEPSVELQLENENHIGLSKELEEKSHQLRQQMKAEDLEELNFDELQKLEQLVDTSLSRVIETKEELRMSEIMALERKGAELVEANNQLKQTVMLSGGNTGPTLMDPERLNDNVGGGGEEEGMSSESAISTTCNSALSLSLGDDSDDVTLSLELGLP
**Q.** B9 was tested. Which binding [3] did it give?
**A.** no binding

Source: paper PMC5855539
